Reference: publication PMC9343881
Results are given in words; binding and its absence hold for the method and conditions named. Binding seen in cells or lysates may run through a third protein. Some binding calls cover weakened binding; strength is not graded here. For part of these data: Where a sequence is shown, tags or fusion partners need not be part of it.

Chains of the proteins cited; added tags and fusions are not shown.
UniProt P06821: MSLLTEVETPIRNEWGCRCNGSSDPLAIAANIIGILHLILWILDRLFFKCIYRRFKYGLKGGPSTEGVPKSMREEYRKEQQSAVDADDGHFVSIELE

Experiments:
Assay in all cases: co-IP
[1] = molecular target: T1, HA-tagged YWHAG (human) (UniProt P61981)
T1 sequence: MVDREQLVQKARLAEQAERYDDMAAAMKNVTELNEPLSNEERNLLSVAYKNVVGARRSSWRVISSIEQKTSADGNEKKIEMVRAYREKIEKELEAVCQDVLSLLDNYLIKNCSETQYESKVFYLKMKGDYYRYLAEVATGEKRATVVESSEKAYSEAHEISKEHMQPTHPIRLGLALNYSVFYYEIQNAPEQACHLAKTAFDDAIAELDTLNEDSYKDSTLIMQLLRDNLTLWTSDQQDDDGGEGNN

[2] = molecular target: HA-tagged M2 (influenza A virus matrix protein 2, A/Puerto Rico/8/34 H1N1) (influenza A virus A/Puerto Rico/8/34 H1N1 (PR8)) (UniProt P06821)
[3] = molecular target: M2 of influenza A virus in infected cells (influenza A virus (strain not stated for this experiment)) (UniProt P06821)

## Flag-tagged M2 (influenza A virus matrix protein 2, A/Puerto Rico/8/34 H1N1) (from UniProt P06821 1-97)
[1]
  binding: binds

B1: Flag-tagged YWHAG (tyrosine 3-monooxygenase/tryptophan 5-monooxygenase activation protein gamma) (protein, UniProt P61981 1-247)
chain: MVDREQLVQKARLAEQAERYDDMAAAMKNVTELNEPLSNEERNLLSVAYKNVVGARRSSWRVISSIEQKTSADGNEKKIEMVRAYREKIEKELEAVCQDVLSLLDNYLIKNCSETQYESKVFYLKMKGDYYRYLAEVATGEKRATVVESSEKAYSEAHEISKEHMQPTHPIRLGLALNYSVFYYEIQNAPEQACHLAKTAFDDAIAELDTLNEDSYKDSTLIMQLLRDNLTLWTSDQQDDDGGEGNN
[2]
  binding: binds

B2: endogenous YWHAG (protein, UniProt P61981 1-247)
chain: MVDREQLVQKARLAEQAERYDDMAAAMKNVTELNEPLSNEERNLLSVAYKNVVGARRSSWRVISSIEQKTSADGNEKKIEMVRAYREKIEKELEAVCQDVLSLLDNYLIKNCSETQYESKVFYLKMKGDYYRYLAEVATGEKRATVVESSEKAYSEAHEISKEHMQPTHPIRLGLALNYSVFYYEIQNAPEQACHLAKTAFDDAIAELDTLNEDSYKDSTLIMQLLRDNLTLWTSDQQDDDGGEGNN
[3]
  binding: binds
